Reference: the supplement of paper PMC10060354, “Discovery of a small molecule ligand of FRS2 that inhibits invasion and tumor growth” (Cellular Oncology, 2022)

Sequences of proteins named here, by UniProt entry; tags and fusion partners are left off. A change or cut given only in a name is not applied to a line headed by its entry.
UniProt Q96GQ7: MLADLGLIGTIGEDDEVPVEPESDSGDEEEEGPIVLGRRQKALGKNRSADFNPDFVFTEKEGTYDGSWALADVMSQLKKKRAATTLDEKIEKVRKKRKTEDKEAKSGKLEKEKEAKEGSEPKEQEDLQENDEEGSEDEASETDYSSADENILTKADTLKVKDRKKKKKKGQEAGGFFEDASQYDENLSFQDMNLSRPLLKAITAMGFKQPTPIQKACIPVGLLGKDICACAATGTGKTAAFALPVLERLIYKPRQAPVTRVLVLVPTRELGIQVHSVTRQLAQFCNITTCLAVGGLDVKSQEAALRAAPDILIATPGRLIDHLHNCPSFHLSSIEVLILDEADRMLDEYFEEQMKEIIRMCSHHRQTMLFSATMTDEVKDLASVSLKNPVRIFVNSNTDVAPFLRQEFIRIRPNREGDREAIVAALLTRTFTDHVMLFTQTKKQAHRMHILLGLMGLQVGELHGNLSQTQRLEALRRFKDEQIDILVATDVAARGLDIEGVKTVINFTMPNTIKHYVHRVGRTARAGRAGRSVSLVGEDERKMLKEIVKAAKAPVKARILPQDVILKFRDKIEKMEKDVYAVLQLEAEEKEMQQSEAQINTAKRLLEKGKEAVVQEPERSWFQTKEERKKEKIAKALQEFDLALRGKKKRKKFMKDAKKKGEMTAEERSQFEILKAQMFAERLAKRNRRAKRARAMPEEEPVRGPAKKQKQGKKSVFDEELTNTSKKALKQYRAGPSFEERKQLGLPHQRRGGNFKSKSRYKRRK
UniProt Q9NVM9, whole entry: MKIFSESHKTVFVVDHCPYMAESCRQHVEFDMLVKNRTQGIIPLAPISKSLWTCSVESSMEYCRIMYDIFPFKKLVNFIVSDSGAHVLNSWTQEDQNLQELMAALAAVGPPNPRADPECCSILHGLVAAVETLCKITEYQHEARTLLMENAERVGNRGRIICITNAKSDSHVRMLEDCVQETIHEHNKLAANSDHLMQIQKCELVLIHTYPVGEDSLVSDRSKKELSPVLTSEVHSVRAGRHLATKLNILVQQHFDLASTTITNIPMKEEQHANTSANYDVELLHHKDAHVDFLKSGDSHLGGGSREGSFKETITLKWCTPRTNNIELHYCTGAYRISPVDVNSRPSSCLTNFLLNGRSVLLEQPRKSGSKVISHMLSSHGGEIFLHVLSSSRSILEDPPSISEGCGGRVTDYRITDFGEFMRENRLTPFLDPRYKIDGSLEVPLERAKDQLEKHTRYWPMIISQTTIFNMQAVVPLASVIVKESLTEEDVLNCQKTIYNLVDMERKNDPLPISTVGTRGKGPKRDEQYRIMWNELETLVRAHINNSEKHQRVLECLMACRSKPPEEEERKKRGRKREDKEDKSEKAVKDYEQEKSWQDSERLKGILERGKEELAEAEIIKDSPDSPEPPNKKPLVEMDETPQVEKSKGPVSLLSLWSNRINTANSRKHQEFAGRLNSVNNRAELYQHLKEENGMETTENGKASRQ
UniProt Q86W56: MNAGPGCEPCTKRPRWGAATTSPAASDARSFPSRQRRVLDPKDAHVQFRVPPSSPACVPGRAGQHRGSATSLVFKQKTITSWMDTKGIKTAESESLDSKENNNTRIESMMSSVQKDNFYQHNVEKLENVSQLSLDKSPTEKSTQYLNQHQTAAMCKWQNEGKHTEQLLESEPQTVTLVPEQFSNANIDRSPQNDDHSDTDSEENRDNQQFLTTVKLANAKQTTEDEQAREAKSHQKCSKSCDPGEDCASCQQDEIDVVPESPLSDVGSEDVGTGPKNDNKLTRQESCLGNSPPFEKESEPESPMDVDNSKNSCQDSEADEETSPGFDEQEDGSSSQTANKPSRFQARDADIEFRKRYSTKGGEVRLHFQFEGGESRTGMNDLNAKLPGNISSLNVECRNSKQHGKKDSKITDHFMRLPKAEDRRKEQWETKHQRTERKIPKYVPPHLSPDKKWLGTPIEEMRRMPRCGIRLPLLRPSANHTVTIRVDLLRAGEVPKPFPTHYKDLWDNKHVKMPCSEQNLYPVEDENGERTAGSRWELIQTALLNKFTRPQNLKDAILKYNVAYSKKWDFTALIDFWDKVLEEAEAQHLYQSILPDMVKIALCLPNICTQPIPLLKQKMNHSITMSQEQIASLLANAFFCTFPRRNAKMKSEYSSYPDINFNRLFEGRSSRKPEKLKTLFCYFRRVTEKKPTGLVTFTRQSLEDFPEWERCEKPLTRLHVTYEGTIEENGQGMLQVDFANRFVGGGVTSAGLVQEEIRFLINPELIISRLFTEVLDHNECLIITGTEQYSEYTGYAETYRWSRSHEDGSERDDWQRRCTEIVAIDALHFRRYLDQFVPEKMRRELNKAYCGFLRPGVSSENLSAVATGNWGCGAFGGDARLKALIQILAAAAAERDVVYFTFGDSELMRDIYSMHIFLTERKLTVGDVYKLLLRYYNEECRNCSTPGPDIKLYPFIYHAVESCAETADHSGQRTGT
UniProt Q86TP1: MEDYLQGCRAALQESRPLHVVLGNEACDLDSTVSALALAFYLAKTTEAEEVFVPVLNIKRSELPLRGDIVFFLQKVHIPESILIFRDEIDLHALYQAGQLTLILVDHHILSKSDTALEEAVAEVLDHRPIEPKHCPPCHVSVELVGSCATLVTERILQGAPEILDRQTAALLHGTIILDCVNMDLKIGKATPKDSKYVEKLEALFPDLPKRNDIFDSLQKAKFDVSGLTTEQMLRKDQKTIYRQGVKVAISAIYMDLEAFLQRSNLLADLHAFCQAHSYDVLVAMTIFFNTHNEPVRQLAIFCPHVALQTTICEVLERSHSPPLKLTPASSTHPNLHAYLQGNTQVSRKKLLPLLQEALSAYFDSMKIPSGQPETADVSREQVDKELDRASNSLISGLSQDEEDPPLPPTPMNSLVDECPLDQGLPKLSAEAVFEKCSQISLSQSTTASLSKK
UniProt Q8N5M4: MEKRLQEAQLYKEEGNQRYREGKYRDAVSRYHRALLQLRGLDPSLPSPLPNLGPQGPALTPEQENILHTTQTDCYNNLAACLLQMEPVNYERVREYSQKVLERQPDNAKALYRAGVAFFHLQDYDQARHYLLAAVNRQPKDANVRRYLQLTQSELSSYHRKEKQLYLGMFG
UniProt Q96RL1: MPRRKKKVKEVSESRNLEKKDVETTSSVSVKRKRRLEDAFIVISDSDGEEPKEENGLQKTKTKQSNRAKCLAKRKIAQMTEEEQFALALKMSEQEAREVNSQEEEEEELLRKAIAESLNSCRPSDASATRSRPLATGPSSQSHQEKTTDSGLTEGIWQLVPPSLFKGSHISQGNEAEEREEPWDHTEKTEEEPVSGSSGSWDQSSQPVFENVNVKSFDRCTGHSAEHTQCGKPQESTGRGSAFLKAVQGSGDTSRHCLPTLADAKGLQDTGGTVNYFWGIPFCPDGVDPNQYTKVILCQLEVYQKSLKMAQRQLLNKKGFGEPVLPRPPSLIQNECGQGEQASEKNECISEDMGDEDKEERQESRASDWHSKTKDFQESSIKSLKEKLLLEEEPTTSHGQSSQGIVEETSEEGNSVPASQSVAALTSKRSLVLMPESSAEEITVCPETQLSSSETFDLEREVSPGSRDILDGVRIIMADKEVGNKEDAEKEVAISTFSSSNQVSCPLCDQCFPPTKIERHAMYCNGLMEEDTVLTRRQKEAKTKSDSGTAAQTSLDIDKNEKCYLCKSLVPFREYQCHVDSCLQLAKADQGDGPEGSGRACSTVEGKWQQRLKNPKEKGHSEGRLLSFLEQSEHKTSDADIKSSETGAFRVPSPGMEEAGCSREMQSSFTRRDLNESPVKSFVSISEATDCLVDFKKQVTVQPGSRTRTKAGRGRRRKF
UniProt Q92784, whole entry: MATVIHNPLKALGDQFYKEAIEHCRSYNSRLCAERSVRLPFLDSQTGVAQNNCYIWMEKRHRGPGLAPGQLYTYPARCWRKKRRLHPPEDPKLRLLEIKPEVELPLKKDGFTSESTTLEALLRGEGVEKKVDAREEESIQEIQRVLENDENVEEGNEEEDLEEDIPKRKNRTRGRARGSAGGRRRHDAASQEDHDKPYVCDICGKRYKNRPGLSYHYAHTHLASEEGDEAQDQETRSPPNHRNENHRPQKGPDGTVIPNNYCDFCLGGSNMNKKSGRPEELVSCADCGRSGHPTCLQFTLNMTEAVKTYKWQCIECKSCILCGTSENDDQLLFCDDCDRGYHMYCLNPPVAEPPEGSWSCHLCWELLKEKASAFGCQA
UniProt Q99471, whole entry: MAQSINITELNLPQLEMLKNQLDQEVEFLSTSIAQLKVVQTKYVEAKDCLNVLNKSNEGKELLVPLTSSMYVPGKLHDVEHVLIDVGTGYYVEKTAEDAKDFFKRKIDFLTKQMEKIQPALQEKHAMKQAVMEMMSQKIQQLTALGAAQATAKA
UniProt Q99743: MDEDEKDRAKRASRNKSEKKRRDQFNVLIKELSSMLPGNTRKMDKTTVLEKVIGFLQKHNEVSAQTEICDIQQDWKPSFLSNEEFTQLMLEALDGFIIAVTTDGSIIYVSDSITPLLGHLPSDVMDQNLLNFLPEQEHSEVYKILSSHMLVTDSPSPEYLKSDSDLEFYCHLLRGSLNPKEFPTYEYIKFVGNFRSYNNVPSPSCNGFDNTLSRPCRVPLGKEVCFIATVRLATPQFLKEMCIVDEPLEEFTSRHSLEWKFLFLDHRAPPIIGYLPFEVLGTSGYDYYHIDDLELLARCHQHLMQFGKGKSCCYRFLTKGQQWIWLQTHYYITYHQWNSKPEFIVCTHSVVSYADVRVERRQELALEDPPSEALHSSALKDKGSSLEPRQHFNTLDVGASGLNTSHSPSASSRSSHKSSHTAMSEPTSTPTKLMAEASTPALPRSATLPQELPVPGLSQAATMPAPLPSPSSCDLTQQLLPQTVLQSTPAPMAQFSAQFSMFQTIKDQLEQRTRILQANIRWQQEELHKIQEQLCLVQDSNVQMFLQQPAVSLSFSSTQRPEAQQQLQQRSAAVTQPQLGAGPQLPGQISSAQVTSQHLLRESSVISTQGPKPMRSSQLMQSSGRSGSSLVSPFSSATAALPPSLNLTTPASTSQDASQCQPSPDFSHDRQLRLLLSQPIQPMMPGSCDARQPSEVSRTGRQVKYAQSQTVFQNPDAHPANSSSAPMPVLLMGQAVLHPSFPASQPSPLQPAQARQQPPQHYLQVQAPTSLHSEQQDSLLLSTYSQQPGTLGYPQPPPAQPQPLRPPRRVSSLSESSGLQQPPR
UniProt Q9UL63, whole entry: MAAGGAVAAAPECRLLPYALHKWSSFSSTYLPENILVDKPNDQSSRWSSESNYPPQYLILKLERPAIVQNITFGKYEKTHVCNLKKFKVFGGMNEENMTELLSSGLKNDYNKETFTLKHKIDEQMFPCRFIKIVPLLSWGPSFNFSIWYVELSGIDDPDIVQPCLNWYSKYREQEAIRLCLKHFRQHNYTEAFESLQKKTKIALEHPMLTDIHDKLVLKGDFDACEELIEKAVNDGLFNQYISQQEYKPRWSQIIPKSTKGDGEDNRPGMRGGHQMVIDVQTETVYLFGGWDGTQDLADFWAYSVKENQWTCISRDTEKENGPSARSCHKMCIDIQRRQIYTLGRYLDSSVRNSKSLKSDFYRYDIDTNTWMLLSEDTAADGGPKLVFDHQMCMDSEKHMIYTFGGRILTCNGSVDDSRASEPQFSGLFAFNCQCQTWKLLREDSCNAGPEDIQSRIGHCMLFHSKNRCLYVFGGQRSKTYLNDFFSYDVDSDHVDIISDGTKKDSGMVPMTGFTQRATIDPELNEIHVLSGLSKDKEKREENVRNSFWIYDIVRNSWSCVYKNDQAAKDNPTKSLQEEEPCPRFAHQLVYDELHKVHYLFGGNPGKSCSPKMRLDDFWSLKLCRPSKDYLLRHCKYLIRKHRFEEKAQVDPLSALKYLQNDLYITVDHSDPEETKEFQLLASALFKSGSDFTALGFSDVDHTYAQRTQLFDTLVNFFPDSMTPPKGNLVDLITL
UniProt Q13948: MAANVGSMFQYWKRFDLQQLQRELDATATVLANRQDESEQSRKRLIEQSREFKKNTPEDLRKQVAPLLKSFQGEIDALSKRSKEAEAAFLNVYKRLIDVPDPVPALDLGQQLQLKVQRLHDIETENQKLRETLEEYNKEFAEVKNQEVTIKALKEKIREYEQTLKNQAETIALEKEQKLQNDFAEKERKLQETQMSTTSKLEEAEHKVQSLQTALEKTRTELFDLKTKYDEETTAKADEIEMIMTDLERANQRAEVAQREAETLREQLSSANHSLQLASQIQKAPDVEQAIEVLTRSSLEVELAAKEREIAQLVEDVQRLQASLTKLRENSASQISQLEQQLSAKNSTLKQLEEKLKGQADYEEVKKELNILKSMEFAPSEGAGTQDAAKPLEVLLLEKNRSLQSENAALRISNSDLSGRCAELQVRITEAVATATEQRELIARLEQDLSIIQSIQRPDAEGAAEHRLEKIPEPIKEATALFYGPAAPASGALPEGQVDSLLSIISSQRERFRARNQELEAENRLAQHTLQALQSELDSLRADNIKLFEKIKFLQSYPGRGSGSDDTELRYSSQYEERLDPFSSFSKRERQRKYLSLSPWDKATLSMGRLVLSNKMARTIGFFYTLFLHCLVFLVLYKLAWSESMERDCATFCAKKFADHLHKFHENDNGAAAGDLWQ

Compound: [O-][N+](C(C1=C(C(O)=C2)NC(C(C=C3)=CC=C3Cl)C4C1C=CC4)=C2Cl)=O
Assay: melting temperature shift (compound 7 minus DMSO); higher = compound stabilises the protein
Details: 10 µM
Procedure: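 Thermal proteome profiling (TMT mass spectrometry) in intact DAOY medulloblastoma cells or DAOY lysates treated with 10 µM compound 7 or DMSO, heated at 10 temperatures from 40.5 to 73.8 °C for 3 min. Melting curves were fitted with the Bioconductor TPP package, and the melting point difference between compound and vehicle is reported per protein (single curve per condition).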

[1] = system: DAOY cell lysate, treatment time: 20 min, 4 °C
[2] = system: intact DAOY cells, treatment time: 90 min, 37 °C

Target | melting temperature shift [1] [°C] | melting temperature shift [2] [°C]
UCKL1 (UniProt Q9NWZ5) | 1.56 | -0.242
UniProt P0CB38 | – | 0.489
DDX27 (UniProt Q96GQ7) | 0.749 | 2.24
MED7 (UniProt O43513) | -2.17 | –
TMEM186 (UniProt Q96B77) | – | -0.938
ASUN (UniProt Q9NVM9) | -0.0802 | 0.399
CCDC97 (UniProt Q96F63) | -2.77 | -1.34
NAMPT (UniProt P43490) | -0.921 | -0.115
SLC25A28 (UniProt Q96A46) | 1.41 | -0.862
BOLA2 (UniProt Q9H3K6) | -0.872 | -0.204
PARG (UniProt Q86W56) | -1.76 | 1.98
MMAB (UniProt Q96EY8) | 0.005 | –
UniProt Q96JI7 | -0.717 | -1.41
MVB12A (UniProt Q96EY5) | -1.02 | 3.2
AMPD2 (UniProt Q01433) | -0.93 | 0.11
NUBP1 (UniProt P53384) | -0.169 | -0.498
C8ORF59 (UniProt Q8N0T1) | -0.609 | -0.573
PRUNE (UniProt Q86TP1) | 0.315 | 0.838
POFUT2 (UniProt Q9Y2G5) | 0.279 | 0.736
UniProt P03891 | -0.0653 | -1.33
UniProt P28370 | 0.921 | 0.257
RNF220 (UniProt Q5VTB9) | -1 | 5.59
BPNT1 (UniProt O95861) | -0.171 | -0.864
TENM3 (UniProt Q9P273) | 1.13 | 1.1
TMEM56 (UniProt Q96MV1) | -0.0705 | -2.06
RPL37 (UniProt P61927) | 0.867 | -0.337
IFT27 (UniProt Q9BW83) | -0.577 | -0.0996

Already shown: an excerpt of the list.
Target | melting temperature shift [1] [°C] | melting temperature shift [2] [°C]
MED7 (UniProt O43513) | -2.17 | –
TMEM186 (UniProt Q96B77) | – | -0.938
ASUN (UniProt Q9NVM9) | -0.0802 | 0.399
CCDC97 (UniProt Q96F63) | -2.77 | -1.34

(continued)

Target | melting temperature shift [1] [°C] | melting temperature shift [2] [°C]
UniProt Q7Z769 | 0.87 | -5.76
MAP1S (UniProt Q66K74) | 0.407 | -0.124
CLIC6 (UniProt Q96NY7) | -1.37 | -0.444
COMMD5 (UniProt Q9GZQ3) | -1.1 | -0.86
TTC9C (UniProt Q8N5M4) | -1.01 | -0.149
UIMC1 (UniProt Q96RL1) | -0.396 | 2.25
CAB39 (UniProt Q9Y376) | -1.26 | -0.981
UniProt Q92784 | -2.06 | –
LEMD2 (UniProt Q8NC56) | 0.833 | -0.894
UniProt P25098 | -1.68 | 0.438
ARHGEF7 (UniProt Q14155) | -0.278 | -0.963
AFAP1 (UniProt Q8N556) | 0.99 | 0.534
MRPL53 (UniProt Q96EL3) | 1.26 | 1.33
PFDN5 (UniProt Q99471) | -1.42 | -0.207
NUDT4 (UniProt Q9NZJ9) | 0.0576 | 0.145
UniProt Q9Y3C7 | -0.982 | –
MCM5 (UniProt P33992) | -0.726 | -1.08
UniProt Q99743 | 0.115 | –
UniProt O43916 | 0.488 | –
TGFBRAP1 (UniProt Q8WUH2) | 2.08 | –
UniProt P00167 | 1.61 | –
CLUH (UniProt O75153) | -0.601 | 1.04
UniProt Q68DX3 | 0.251 | –
MKLN1 (UniProt Q9UL63) | -0.489 | 1.96
UniProt Q13948 | – | 0.0797
KIF23 (UniProt Q02241) | -0.739 | -1.67
NUDT19 (UniProt A8MXV4) | 0.422 | 1.69

Repeats are few or missing, and single values can be far off.
